4 molecules from US20110256557A1, “IDENTIFYING PARATHYROID HORMONE AGONISTS AND ANTAGONISTS” (DISCOVERYBIOMED, INC., priority 2008, published 2011) can be followed below.

Chains of the proteins cited; added tags and fusions are not shown. Lines headed by an entry give the natural chain unless they say otherwise; changes in a name come on top. A line that says so, or that is headed by a name, gives the form on record, which may keep a tag or linker. Residues count along the entry.
UniProt P25961, residues 27-591: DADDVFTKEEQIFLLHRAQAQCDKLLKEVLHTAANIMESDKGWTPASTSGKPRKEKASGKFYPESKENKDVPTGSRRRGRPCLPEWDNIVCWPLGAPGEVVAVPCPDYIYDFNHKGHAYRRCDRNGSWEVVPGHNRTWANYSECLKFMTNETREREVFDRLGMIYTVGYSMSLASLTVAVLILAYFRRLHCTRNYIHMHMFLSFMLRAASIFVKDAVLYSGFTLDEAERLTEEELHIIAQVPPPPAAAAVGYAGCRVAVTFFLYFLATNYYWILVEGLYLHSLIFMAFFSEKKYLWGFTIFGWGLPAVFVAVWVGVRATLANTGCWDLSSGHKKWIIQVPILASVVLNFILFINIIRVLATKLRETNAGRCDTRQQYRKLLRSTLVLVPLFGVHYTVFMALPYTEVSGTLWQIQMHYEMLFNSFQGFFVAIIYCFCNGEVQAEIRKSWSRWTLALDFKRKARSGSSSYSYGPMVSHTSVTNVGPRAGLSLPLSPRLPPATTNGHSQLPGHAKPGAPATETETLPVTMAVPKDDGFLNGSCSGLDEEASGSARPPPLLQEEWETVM
UniProt Q03431, residues 27-593: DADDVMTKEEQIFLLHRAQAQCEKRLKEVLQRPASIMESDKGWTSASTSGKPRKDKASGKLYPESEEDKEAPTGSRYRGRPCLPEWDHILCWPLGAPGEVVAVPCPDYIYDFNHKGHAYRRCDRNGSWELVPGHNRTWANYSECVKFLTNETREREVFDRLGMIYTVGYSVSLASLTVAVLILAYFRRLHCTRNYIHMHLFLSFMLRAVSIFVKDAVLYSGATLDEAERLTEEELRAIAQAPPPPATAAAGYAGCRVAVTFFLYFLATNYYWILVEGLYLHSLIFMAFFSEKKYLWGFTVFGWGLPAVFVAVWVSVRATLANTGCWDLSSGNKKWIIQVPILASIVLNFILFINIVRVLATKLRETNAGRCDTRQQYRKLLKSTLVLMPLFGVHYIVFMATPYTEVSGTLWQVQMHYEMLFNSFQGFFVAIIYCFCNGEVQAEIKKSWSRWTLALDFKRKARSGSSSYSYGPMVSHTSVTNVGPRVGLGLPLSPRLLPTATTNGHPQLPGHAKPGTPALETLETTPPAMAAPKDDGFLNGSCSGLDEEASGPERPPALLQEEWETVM
endogenous LRP6 in UMR-106 cells (A0A0G2K0H3, form named): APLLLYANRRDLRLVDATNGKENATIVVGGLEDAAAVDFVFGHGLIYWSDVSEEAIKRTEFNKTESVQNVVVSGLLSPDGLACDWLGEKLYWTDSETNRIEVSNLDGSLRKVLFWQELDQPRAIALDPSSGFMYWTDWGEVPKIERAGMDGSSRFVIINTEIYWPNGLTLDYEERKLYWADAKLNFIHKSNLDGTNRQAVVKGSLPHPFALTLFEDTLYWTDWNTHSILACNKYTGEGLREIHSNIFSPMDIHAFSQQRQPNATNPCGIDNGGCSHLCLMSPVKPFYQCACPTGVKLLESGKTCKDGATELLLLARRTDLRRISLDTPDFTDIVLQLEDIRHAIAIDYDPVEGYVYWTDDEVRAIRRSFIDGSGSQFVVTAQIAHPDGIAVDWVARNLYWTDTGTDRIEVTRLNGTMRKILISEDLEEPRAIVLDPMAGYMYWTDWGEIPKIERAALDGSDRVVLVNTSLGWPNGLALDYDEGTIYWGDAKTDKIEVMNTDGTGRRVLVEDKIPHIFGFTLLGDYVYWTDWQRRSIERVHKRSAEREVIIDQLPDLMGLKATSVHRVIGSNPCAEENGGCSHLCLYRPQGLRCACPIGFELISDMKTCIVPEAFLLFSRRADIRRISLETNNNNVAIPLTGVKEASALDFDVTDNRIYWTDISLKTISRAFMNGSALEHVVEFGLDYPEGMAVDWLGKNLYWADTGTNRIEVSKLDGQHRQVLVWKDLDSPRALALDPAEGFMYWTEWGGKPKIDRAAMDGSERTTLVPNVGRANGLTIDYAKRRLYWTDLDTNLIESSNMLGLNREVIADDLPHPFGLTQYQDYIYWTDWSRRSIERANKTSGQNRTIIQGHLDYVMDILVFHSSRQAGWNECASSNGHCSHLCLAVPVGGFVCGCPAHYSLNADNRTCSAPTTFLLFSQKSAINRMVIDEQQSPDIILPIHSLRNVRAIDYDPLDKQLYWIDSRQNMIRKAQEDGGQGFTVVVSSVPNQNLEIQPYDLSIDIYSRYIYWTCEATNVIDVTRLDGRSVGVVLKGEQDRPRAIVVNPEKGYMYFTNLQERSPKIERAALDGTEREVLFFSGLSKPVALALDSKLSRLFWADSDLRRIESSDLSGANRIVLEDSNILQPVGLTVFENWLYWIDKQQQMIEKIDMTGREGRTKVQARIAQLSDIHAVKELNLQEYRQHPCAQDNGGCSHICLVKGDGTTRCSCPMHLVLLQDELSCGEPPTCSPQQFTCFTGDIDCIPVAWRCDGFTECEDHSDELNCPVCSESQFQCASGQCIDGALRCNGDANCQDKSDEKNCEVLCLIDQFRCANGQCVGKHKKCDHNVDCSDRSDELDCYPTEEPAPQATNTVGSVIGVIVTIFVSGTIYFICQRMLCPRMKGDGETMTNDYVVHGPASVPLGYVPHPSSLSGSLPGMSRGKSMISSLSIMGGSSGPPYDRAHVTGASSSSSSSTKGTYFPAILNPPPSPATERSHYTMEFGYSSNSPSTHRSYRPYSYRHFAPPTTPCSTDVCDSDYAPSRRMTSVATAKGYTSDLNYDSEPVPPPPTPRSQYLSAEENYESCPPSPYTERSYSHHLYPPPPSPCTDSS
UniProt O75197, residues 32-1615: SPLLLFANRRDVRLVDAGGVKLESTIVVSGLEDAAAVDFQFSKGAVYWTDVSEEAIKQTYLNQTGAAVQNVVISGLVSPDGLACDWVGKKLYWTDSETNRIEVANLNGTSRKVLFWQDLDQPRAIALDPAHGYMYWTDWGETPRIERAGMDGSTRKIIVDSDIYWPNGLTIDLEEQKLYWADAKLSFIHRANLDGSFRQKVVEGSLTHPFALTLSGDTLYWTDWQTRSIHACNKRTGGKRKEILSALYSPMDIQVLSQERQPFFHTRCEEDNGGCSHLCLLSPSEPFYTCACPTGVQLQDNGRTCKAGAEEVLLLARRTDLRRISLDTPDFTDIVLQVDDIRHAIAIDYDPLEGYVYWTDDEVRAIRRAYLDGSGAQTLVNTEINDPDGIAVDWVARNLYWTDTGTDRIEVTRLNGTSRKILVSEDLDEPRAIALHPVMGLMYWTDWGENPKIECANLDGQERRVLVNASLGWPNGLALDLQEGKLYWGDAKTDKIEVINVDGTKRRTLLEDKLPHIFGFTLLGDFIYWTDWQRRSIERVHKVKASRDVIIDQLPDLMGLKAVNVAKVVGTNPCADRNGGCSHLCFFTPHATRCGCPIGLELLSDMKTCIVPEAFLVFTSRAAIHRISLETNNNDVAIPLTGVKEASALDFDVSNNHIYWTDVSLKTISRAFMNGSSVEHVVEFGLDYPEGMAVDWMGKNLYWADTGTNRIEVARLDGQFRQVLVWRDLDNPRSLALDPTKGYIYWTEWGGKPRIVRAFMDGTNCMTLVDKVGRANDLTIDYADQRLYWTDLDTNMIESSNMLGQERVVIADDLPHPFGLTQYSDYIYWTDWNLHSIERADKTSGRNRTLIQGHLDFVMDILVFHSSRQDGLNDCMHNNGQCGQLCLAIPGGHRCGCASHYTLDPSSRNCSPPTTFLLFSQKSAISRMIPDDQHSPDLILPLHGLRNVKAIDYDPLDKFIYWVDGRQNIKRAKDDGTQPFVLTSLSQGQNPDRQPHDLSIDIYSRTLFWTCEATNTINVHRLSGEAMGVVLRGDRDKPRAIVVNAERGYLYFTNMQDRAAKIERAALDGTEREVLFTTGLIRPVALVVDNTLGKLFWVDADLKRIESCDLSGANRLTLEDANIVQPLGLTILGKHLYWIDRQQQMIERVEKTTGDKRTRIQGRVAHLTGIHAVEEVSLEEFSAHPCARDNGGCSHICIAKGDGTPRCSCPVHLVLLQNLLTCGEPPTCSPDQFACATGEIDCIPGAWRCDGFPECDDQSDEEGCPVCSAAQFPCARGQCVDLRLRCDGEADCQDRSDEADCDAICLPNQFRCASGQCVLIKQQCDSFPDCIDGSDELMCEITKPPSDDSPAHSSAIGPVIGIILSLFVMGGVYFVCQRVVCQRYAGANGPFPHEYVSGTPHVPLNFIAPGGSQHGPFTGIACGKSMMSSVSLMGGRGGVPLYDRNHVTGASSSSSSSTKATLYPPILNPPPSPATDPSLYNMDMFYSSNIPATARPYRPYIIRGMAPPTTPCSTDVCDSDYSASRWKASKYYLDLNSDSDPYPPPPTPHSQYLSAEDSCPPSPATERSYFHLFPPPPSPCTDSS

No constants are given. Whether binding was seen depends on the method and setting. For part of these data: In cells and extracts the contact can be indirect. Some results given as binding are weak or reduced against the parent protein; the word gives no strength.

The target of experiment [1] is endogenous PTH1R in UMR-106 cells (rat) (UniProt P25961). Description: co-IP with antibodies to LRP6 from lysates of PTH-treated UMR-106 cells.
Experiment [2] shares this target. Description: co-IP, Western blot, UMR-106 cells.
Experiment [3] has as its target PTH1R tagged with HA (exogenous) (UniProt Q03431). Description: co-IP, Western blot, HEK293 cells. In general terms: A western blot detects proteins with antibodies after separation by electrophoresis.
Experiment [4] has the same target. The experiment is described as follows: co-IP from cells co-expressing PTH1R and LRP6N+T.
Experiment [5] shares this target. The experiment is described as follows: immunofluorescence colocalization on HA-PTH1R-transfected cells.

Consider “endogenous LRP6 in UMR-106 cells (from UniProt A0A0G2K0H3 20-1611) (receptor)”, for which the binding entry in experiment [1] and in experiment [2] was “binds” in each case.

Turning to “human LRP5 tagged with HA (exogenous) (from UniProt O75197 32-1615) (receptor)”, the binding result in experiment [3] is recorded as “binds”.

As for “LRP6N+T (LRP6 N-terminal plus the transmembrane domain) tagged with VSVG (from UniProt O75581 20-1393) (receptor)”, the binding result in experiment [3] and in experiment [4] was “binds” in each case.

B1: LRP6N-IgG: LRP6 extracellular domain fused with IgG (protein)
chain: APLLLYANRRDLRLVDATNGKENATIVVGGLEDAAAVDFVFSHGLIYWSDVSEEAIKRTEFNKTESVQNVVVSGLLSPDGLACDWLGEKLYWTDSETNRIEVSNLDGSLRKVLFWQELDQPRAIALDPSSGFMYWTDWGEVPKIERAGMDGSSRFIIINSEIYWPNGLTLDYEEQKLYWADAKLNFIHKSNLDGTNRQAVVKGSLPHPFALTLFEDILYWTDWSTHSILACNKYTGEGLREIHSDIFSPMDIHAFSQQRQPNATNPCGIDNGGCSHLCLMSPVKPFYQCACPTGVKLLENGKTCKDGATELLLLARRTDLRRISLDTPDFTDIVLQLEDIRHAIAIDYDPVEGYIYWTDDEVRAIRRSFIDGSGSQFVVTAQIAHPDGIAVDWVARNLYWTDTGTDRIEVTRLNGTMRKILISEDLEEPRAIVLDPMVGYMYWTDWGEIPKIERAALDGSDRVVLVNTSLGWPNGLALDYDEGKIYWGDAKTDKIEVMNTDGTGRRVLVEDKIPHIFGFTLLGDYVYWTDWQRRSIERVHKRSAEREVIIDQLPDLMGLKATNVHRVIGSNPCAEENGGCSHLCLYRPQGLRCACPIGFELISDMKTCIVPEAFLLFSRRADIRRISLETNNNNVAIPLTGVKEASALDFDVTDNRIYWTDISLKTISRAFMNGSALEHVVEFGLDYPEGMAVDWLGKNLYWADTGTNRIEVSKLDGQHRQVLVWKDLDSPRALALDPAEGFMYWTEWGGKPKIDRAAMDGSERTTLVPNVGRANGLTIDYAKRRLYWTDLDTNLIESSNMLGLNREVIADDLPHPFGLTQYQDYIYWTDWSRRSIERANKTSGQNRTIIQGHLDYVMDILVFHSSRQSGWNECASSNGHCSHLCLAVPVGGFVCGCPAHYSLNADNRTCSAPTTFLLFSQKSAINRMVIDEQQSPDIILPIHSLRNVRAIDYDPLDKQLYWIDSRQNMIRKAQEDGSQGFTVVVSSVPSQNLEIQPYDLSIDIYSRYIYWTCEATNVINVTRLDGRSVGVVLKGEQDRPRAVVVNPEKGYMYFTNLQERSPKIERAALDGTEREVLFFSGLSKPIALALDSRLGKLFWADSDLRRIESSDLSGANRIVLEDSNILQPVGLTVFENWLYWIDKQQQMIEKIDMTGREGRTKVQARIAQLSDIHAVKELNLQEYRQHPCAQDNGGCSHICLVKGDGTTRCSCPMHLVLLQDELSCGEPPTCSPQQFTCFTGEIDCIPVAWRCDGFTECEDHSDELNCPVCSESQFQCASGQCIDGALRCNGDANCQDKSDEKNCEVLCLIDQFRCANGQCIGKHKKCDHNVDCSDKSDELDCYPTEEPAPQA
modifications: left off: a dimerising Fc or GST
Turning to B1, in experiment [5], the binding result is listed as “binds”.
